Results deposited as PubChem BioAssay AID652243 (Drosophila RNAi Screening Center, 2013)
The deposit covers about 24,000 reagents; this is an unselected part of those that have a named target and a result. Of all reagents, 246 (1%) got an active call. 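Plates not normalised; calls are printed but the firefly/Renilla ratio behind them is not deposited; fold cut for lowering reported inconsistently.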 Raw values are not corrected between plates. Reagents against one gene are numbered here. Not stated in the record: the amount of reagent.

Purpose: 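Fly regulators of androgen-dependent reporter output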 (primary screen)
Cells: Drosophila S2R+ cells
Reagent: long dsRNA against Drosophila genes
Time to read-out: 72 h (48 h, then 24 h hormone)
Conditions: synthetic androgen R1881 at 10 nM for 24 h
Read-out: 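Per-well raw luminescence of the androgen-driven firefly reporter and of the Renilla control, two replicates each, without normalisation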
Direction: firefly reporter light: higher = more light from androgen-responsive reporter; Renilla control light: higher = more constitutive control signal (cell number, transfection)
Active means: 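Hit when the log firefly-to-Renilla ratio dropped or increased by a fixed fold versus the mean of GFP or LacZ controls across duplicate plates; lowering cut given as 1.5 and as 3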
Calls: active = hit: reporter lowered or raised; inactive = no hit

| target gene | reagent | firefly reporter light, replicate 1 | firefly reporter light, replicate 2 | Renilla control light, replicate 1 | Renilla control light, replicate 2 | call |
| --- | --- | --- | --- | --- | --- | --- |
| CG34303 (GeneID 5740723) | 1 | 1.07e6 | 9.10e5 | 1.98e6 | 2.31e6 | inactive |
| CG17107 (GeneID 34467) | 1 | 4.21e5 | 4.10e5 | 2.99e6 | 2.76e6 | inactive |
| CG17107 (GeneID 34467) | 2 | 9.52e5 | 6.14e5 | 1.41e6 | 1.06e6 | inactive |
| CG17107 (GeneID 34467) | 3 | 6.94e5 | 6.95e5 | 8.83e5 | 7.30e5 | inactive |
| Rrp5 (GeneID 42899) | 1 | 51528 | 51085 | 4.24e5 | 3.94e5 | inactive |
| Rrp5 (GeneID 42899) | 2 | 1.03e6 | 7.71e5 | 1.27e6 | 7.79e5 | inactive |
| Fgop2 (GeneID 33971) | 1 | 3.57e5 | 5.93e5 | 1.60e6 | 1.73e6 | inactive |
| Cyp12e1 (GeneID 41272) | 1 | 1.87e5 | 2.76e5 | 2.11e6 | 3.32e6 | inactive |
| Cec2 (GeneID 3772199) | 1 | 7.79e5 | 5.79e5 | 1.40e6 | 1.04e6 | inactive |
| Cec2 (GeneID 3772199) | 2 | 6.49e5 | 6.11e5 | 4.49e5 | 4.64e5 | inactive |
| Ythdf (GeneID 42995) | 1 | 1.08e5 | 1.40e5 | 1.64e6 | 2.17e6 | inactive |
| Ythdf (GeneID 42995) | 2 | 1.84e5 | 1.83e5 | 2.96e6 | 2.59e6 | inactive |
| DIP-alpha (GeneID 31322) | 1 | 5.22e5 | 3.68e5 | 3.43e6 | 3.97e6 | inactive |
| DIP-alpha (GeneID 31322) | 2 | 5.06e5 | 5.72e5 | 1.47e6 | 1.57e6 | inactive |
| CG8043 (GeneID 41030) | 1 | 3.54e5 | 2.14e5 | 3.97e6 | 2.15e6 | inactive |
| loqs (GeneID 34751) | 1 | 1.54e5 | 2.28e5 | 1.81e6 | 1.77e6 | inactive |
| RasGAP1 (GeneID 39158) | 1 | 2.10e5 | 2.32e5 | 2.44e6 | 1.97e6 | inactive |
| CG4017 (GeneID 34296) | 1 | 1.16e5 | 91018 | 7.36e5 | 7.35e5 | inactive |
| mbf1 (GeneID 39842) | 1 | 52535 | 44322 | 9.35e5 | 7.04e5 | inactive |
| MFS9 (GeneID 42426) | 1 | 90620 | 94500 | 9.69e5 | 8.40e5 | inactive |
| AdoR (GeneID 43583) | 1 | 81612 | 89004 | 1.38e6 | 1.36e6 | inactive |
| AdoR (GeneID 43583) | 2 | 3.83e5 | 4.10e5 | 9.42e5 | 1.11e6 | inactive |
| Gr98c (GeneID 117336) | 1 | 8.26e5 | 7.79e5 | 2.71e6 | 2.45e6 | inactive |
| Gr98c (GeneID 117336) | 2 | 3.91e5 | 3.10e5 | 6.41e5 | 6.66e5 | inactive |
| CG32808 (GeneID 318221) | 1 | 6.87e5 | 6.31e5 | 1.76e6 | 1.05e6 | inactive |
| CG32808 (GeneID 318221) | 2 | 3.69e5 | 2.90e5 | 1.23e6 | 1.19e6 | inactive |
| Tsen2 (GeneID 318956) | 1 | 1.32e5 | 1.29e5 | 2.94e5 | 2.82e5 | inactive |
| Tsen2 (GeneID 318956) | 2 | 4.25e5 | 3.52e5 | 5.68e5 | 6.07e5 | inactive |
| CG4744 (GeneID 36485) | 1 | 1.20e6 | 9.66e5 | 2.52e6 | 2.41e6 | inactive |
| CG4744 (GeneID 36485) | 2 | 6.08e5 | 4.36e5 | 1.23e6 | 1.17e6 | inactive |
| Nach (GeneID 36864) | 1 | 76603 | 1.10e5 | 1.01e6 | 1.01e6 | inactive |
| P58IPK (GeneID 41161) | 1 | 1.63e5 | 1.19e5 | 3.29e6 | 2.88e6 | inactive |
| P58IPK (GeneID 41161) | 2 | 4.00e5 | 3.67e5 | 9.23e5 | 7.68e5 | inactive |
| Klf15 (GeneID 31410) | 1 | 1.96e5 | 2.28e5 | 2.56e6 | 2.51e6 | inactive |
| CG12898 (GeneID 36096) | 1 | 3.01e5 | 1.75e5 | 1.70e6 | 1.43e6 | inactive |
| Nop10 (GeneID 36135) | 1 | 2.61e5 | 3.72e5 | 5.95e5 | 9.18e5 | inactive |
| Myo10A (GeneID 32028) | 1 | 5.00e5 | 5.98e5 | 3.24e6 | 3.25e6 | inactive |
| Myo10A (GeneID 32028) | 2 | 4.77e5 | 4.17e5 | 3.27e6 | 3.82e6 | inactive |
| Myo10A (GeneID 32028) | 3 | 4.12e5 | 4.05e5 | 1.36e6 | 1.55e6 | inactive |
| Myo10A (GeneID 32028) | 4 | 6.36e5 | 4.63e5 | 2.18e6 | 1.40e6 | inactive |
| Naus (GeneID 37076) | 1 | 6.14e5 | 7.19e5 | 1.39e6 | 1.08e6 | inactive |
| Naus (GeneID 37076) | 2 | 18915 | 21214 | 7.81e5 | 7.81e5 | active |
| Naus (GeneID 37076) | 3 | 8.52e5 | 1.07e6 | 1.05e6 | 1.16e6 | inactive |
| CG15515 (GeneID 43538) | 1 | 1.79e5 | 2.21e5 | 1.93e6 | 2.50e6 | inactive |
| Sytalpha (GeneID 35068) | 1 | 2.04e5 | 2.06e5 | 2.25e6 | 2.43e6 | inactive |
| CG31821 (GeneID 34938) | 1 | 8.23e5 | 6.09e5 | 2.17e6 | 1.58e6 | inactive |
| dpr6 (GeneID 50296) | 1 | 1.45e5 | 95085 | 1.45e5 | 1.92e5 | inactive |
| dpr6 (GeneID 50296) | 2 | 3.26e5 | 2.03e5 | 3.47e6 | 1.97e6 | inactive |
| dpr6 (GeneID 50296) | 3 | 7.86e5 | 6.94e5 | 2.94e6 | 4.23e6 | inactive |
| CG6296 (GeneID 43246) | 1 | 62207 | 96108 | 4.51e5 | 4.54e5 | inactive |
| CG10470 (GeneID 35174) | 1 | 83632 | 95000 | 1.28e6 | 1.23e6 | inactive |
| tw (GeneID 31024) | 1 | 54780 | 20431 | 2.18e5 | 2.59e5 | inactive |
| CG10562 (GeneID 43066) | 1 | 85328 | 73822 | 5.41e5 | 7.00e5 | inactive |
| CG10562 (GeneID 43066) | 2 | 4.99e5 | 4.03e5 | 1.18e6 | 9.55e5 | inactive |
| CG12883 (GeneID 43326) | 1 | 1.58e5 | 2.05e5 | 1.72e6 | 2.67e6 | inactive |
| CG12883 (GeneID 43326) | 2 | 2.74e5 | 2.43e5 | 6.09e5 | 6.29e5 | inactive |
| iotaTry (GeneID 36223) | 1 | 2.35e5 | 94043 | 1.88e6 | 1.05e6 | inactive |
| Cyp4d21 (GeneID 34036) | 1 | 6.37e5 | 8.75e5 | 9.12e5 | 1.25e6 | inactive |
| Cyp4d21 (GeneID 34036) | 2 | 5.41e5 | 5.84e5 | 3.81e5 | 5.24e5 | inactive |

Ordered by “Renilla control light, replicate 2” (low to high): some entries from above.
| target gene | reagent | firefly reporter light, replicate 1 | firefly reporter light, replicate 2 | Renilla control light, replicate 1 | Renilla control light, replicate 2 | call |
| --- | --- | --- | --- | --- | --- | --- |
| dpr6 (GeneID 50296) | 1 | 1.45e5 | 95085 | 1.45e5 | 1.92e5 | inactive |
| Naus (GeneID 37076) | 2 | 18915 | 21214 | 7.81e5 | 7.81e5 | active |
| Naus (GeneID 37076) | 1 | 6.14e5 | 7.19e5 | 1.39e6 | 1.08e6 | inactive |
| Naus (GeneID 37076) | 3 | 8.52e5 | 1.07e6 | 1.05e6 | 1.16e6 | inactive |
| Myo10A (GeneID 32028) | 4 | 6.36e5 | 4.63e5 | 2.18e6 | 1.40e6 | inactive |
| Myo10A (GeneID 32028) | 3 | 4.12e5 | 4.05e5 | 1.36e6 | 1.55e6 | inactive |
| CG31821 (GeneID 34938) | 1 | 8.23e5 | 6.09e5 | 2.17e6 | 1.58e6 | inactive |
| Sytalpha (GeneID 35068) | 1 | 2.04e5 | 2.06e5 | 2.25e6 | 2.43e6 | inactive |
| CG15515 (GeneID 43538) | 1 | 1.79e5 | 2.21e5 | 1.93e6 | 2.50e6 | inactive |
